{
  "sequences": {"note": "Sequences of proteins named here, by UniProt entry; tags and fusion partners are left off. A change or cut given only in a name is not applied to a line headed by its entry.", "UniProt Q01638": "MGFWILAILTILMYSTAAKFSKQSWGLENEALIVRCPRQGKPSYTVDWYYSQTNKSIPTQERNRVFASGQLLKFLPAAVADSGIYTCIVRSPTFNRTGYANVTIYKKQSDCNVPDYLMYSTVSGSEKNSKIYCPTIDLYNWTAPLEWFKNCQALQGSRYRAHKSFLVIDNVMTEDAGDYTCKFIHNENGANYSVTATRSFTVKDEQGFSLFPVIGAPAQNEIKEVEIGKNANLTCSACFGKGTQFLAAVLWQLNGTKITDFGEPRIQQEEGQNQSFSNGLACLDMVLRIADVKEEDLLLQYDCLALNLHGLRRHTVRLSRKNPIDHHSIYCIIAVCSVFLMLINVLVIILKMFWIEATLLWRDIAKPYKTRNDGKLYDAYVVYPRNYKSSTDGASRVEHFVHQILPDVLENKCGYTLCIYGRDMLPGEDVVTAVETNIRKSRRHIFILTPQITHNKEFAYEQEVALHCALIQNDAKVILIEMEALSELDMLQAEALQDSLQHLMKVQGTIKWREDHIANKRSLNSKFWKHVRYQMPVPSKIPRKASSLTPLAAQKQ"},
  "source": "PubChem BioAssay AID1259354",
  "about": "(Paczesny and Yang Labs, IUPUI and University of Michigan, 2018)",
  "note": "Screen size: about 78,000 compounds; about 1,800 (2.3%) were called active. Inconclusive means that the source gave no clear call. Such entries were picked first, then a sample of the others. Cut-off read from the data, not from the text of the source: active = inhibition above about 30%; inconclusive = mostly about 10% to 28%; inactive = weaker than that.",
  "data": [
    {"target": "Interleukin-1 receptor-like 1 (Homo sapiens) (UniProt Q01638)", "assay": "blocks human ST2 binding to IL-33, primary screen, biochemical, AlphaLISA (AID 1259354)", "conditions": "AlphaLISA ST2-Fc/biotin-IL-33 interaction, 1 h; at 17 µM, active compounds read high", "values": [
      {"smiles": "O=C1CSc2ccc(C(=O)N3CCN(c4ccccn4)CC3)cc2N1", "inhibition": "inconclusive: 14%"},
      {"smiles": "Oc1oc(-c2ccc(Cl)cc2)nc1C=Nc1ccc(F)cc1", "inhibition": "inconclusive: 19%"},
      {"smiles": "O=C(/C=C/c1ccc2c(c1)OCO2)Nc1ccc(Cl)cc1", "inhibition": "inactive"},
      {"smiles": "COCC1(C(=O)NC2CC(=O)N(CCc3ccc(F)cc3)C2)CCC1", "note": "(stereo not given)", "inhibition": "inactive"},
      {"smiles": "OCCN=C1CCCc2c1[nH]c1ccc(Br)cc21", "inhibition": "inconclusive: 24%"},
      {"smiles": "CC(C)CN1C(=O)N(Cc2ccccn2)C(=O)C12CCN(C1CCSC1)CC2", "note": "(stereo not given)", "inhibition": "inconclusive: 19%"},
      {"smiles": "Cc1cc(N(C)CCO)nc(-c2cccnc2)n1", "inhibition": "inactive"},
      {"smiles": "COc1cc(OC)c(OC)cc1CN1CCN(c2cccc(Cl)c2)CC1", "inhibition": "inconclusive: 24%"},
      {"smiles": "O=C(NCC1CCCCO1)c1ccc2oc(CCCc3ccccc3)nc2c1", "note": "(stereo not given)", "inhibition": "inactive"},
      {"smiles": "CCOc1ccc(S(=O)(=O)NCc2nc3cccnc3n2Cc2cccc(C)c2)cc1", "inhibition": "inactive"},
      {"smiles": "CCC(=O)Nc1ccc(OCC(=O)NCc2cn3c(n2)SCC3)cc1", "inhibition": "inconclusive: 14%"},
      {"smiles": "COCc1cc(CNC(=O)c2csc3c2CCCC3)[nH]n1", "inhibition": "inactive"},
      {"smiles": "Cc1ccn2c(=O)cc(COc3cccc(NC(=O)C4CCCCC4)c3)nc2c1", "inhibition": "inactive"},
      {"smiles": "Cc1ccc2nc(C(=O)N3CCc4c([nH]c5ccccc45)C3c3ccccn3)cn2c1", "note": "(stereo not given)", "inhibition": "inconclusive: 17%"},
      {"smiles": "N#Cc1cccc(NC(=O)Nc2ccc3n(c2=O)C[C@H]2C[C@@H]3CN(C(=O)c3ccc4ccccc4c3)C2)c1", "inhibition": "inconclusive: 10%"},
      {"smiles": "COc1ccc(/C=C/C(=O)NC2CCCN(C3Cc4ccccc4C3)C2)cc1", "note": "(stereo not given)", "inhibition": "inactive"},
      {"smiles": "NC(N)=Nc1nc(-c2ccccc2)c2cc(Cl)ccc2n1", "inhibition": "inconclusive: 21%"},
      {"smiles": "CCOC(=O)N1CCN(Cc2ccc3c(c2)CN(C(=O)c2cc(-c4ccccc4)no2)CCO3)CC1", "inhibition": "inconclusive: 16%"},
      {"smiles": "O=C(Nc1ccc(N2CCCC2)cc1)c1cc(Br)ccc1Cl", "inhibition": "active: 34%"},
      {"smiles": "CNc1ccnc(N2CCN(CCc3ccccc3)CC2)n1", "inhibition": "inconclusive: 14%"},
      {"smiles": "Cc1nc2c(C(=O)NC3CCCCC3C)c[nH]n2c(=O)c1Cc1ccccc1F", "note": "(stereo not given)", "inhibition": "inconclusive: 11%"},
      {"smiles": "N#C/C(=C\\c1ccc(Cl)cc1)c1nc(-c2ccc([N+](=O)[O-])cc2)cs1", "inhibition": "inconclusive: 29%"},
      {"smiles": "CN(Cc1noc2c1CCCC2)S(=O)(=O)NCc1ccccc1", "inhibition": "inconclusive: 17%"},
      {"smiles": "CN(CCc1ccccn1)c1ncccc1CNC(=O)c1ccc2occc2c1", "inhibition": "inconclusive: 14%"},
      {"smiles": "CCn1cc(CNC(=O)c2ccc([N+](=O)[O-])cc2)cn1", "inhibition": "inconclusive: 13%"},
      {"smiles": "CC(=NCCc1ccccc1)C1=C(O)CCC1=O", "inhibition": "inconclusive: 13%"},
      {"smiles": "Cc1nn(-c2ccccc2)c(C)c1[C@@H]1C=C[C@@H](NC(=O)CCCC(=O)O)C1", "inhibition": "inconclusive: 11%"},
      {"smiles": "Cc1ccc(Nc2ncnc3sc(C)cc23)cc1", "inhibition": "inconclusive: 11%"},
      {"smiles": "CCOC(=O)C1=NN(C(C)=O)C2C(=O)N(c3ccc(Cl)cc3)C(=O)C12", "note": "(stereo not given)", "inhibition": "inconclusive: 15%"},
      {"smiles": "COc1ccc(NC(=O)C(C(C)C)N2C(=O)c3ccccc3C2=O)c(OC)c1", "note": "(stereo not given)", "inhibition": "inconclusive: 24%"},
      {"smiles": "Cc1nn(CCNC(=O)c2cnc(-c3ccccn3)nc2)c(C)c1Cl", "inhibition": "inconclusive: 10%"},
      {"smiles": "CC1CC(Nc2ccccc2)c2ccccc2N1C(=O)c1ccccc1", "note": "(stereo not given)", "inhibition": "inconclusive: 12%"},
      {"smiles": "N#CC1=C(N)SC(N)=C(C#N)C1c1cccc(Cl)c1", "inhibition": "inconclusive: 24%"},
      {"smiles": "CC(C)(C)N1CC2(c3ccccc3)CN(C(C)(C)C)CC(c3ccccc3)(C1)C2=O", "inhibition": "inconclusive: 21%"},
      {"smiles": "O=C(c1ccccc1)c1c(O)cc(-c2ccccc2)oc1=O", "inhibition": "inactive"},
      {"smiles": "CCN1CCCC1CNC(=O)CSc1c2c(nc3cc(Cl)ccc13)CCCC2", "note": "(stereo not given)", "inhibition": "inconclusive: 18%"},
      {"smiles": "O=C(c1coc(COc2ccc(F)cc2Cl)n1)N1C[C@H]2CC[C@@H]1C2", "inhibition": "inactive"},
      {"smiles": "CCOC(=O)C1(CCCc2ccccc2)CCN(C(=O)c2ccc(COC)s2)CC1", "inhibition": "inconclusive: 15%"},
      {"smiles": "COc1ccc(C(=O)NCCCNc2ccc([N+](=O)[O-])cc2Cl)cc1OC", "inhibition": "inconclusive: 12%"},
      {"smiles": "COc1cc(C(=O)Nc2ccc3c(c2)OCCO3)c(Br)c(OC)c1OC", "inhibition": "inconclusive: 11%"},
      {"smiles": "O=C(O)C1CN(c2ncccn2)CCN1C(=O)c1cnc2ccccc2c1", "note": "(stereo not given)", "inhibition": "inconclusive: 10%"},
      {"smiles": "O=C(CSc1nc2c(c(=O)n1-c1ccc(F)cc1)SCC2)Nc1cccc(F)c1", "inhibition": "inconclusive: 15%"},
      {"smiles": "Cc1ccccc1NC1CC(C)Nc2c(C)cccc21", "note": "(stereo not given)", "inhibition": "active: 39%"},
      {"smiles": "COc1ccc(C(=O)C[n+]2cnn(CC(=O)c3ccccc3)c2)cc1", "inhibition": "inactive"},
      {"smiles": "N#Cc1ccc(C2C3=C(CCCC3=O)Nc3nc(SCc4ccccc4)nn32)cc1", "note": "(stereo not given)", "inhibition": "inactive"},
      {"smiles": "O=C1Nc2ccccc2C12CCCN(c1nnnn1-c1ccccc1)C2", "note": "(stereo not given)", "inhibition": "inconclusive: 17%"},
      {"smiles": "CSc1ccc(CN(C(=O)[C@H](N)c2ccccc2)C2CC2)cc1", "inhibition": "inconclusive: 12%"},
      {"smiles": "CS(=O)(=O)NC[C@H]1O[C@@H](CO)[C@@H](O)[C@H]1N1CCN(c2ccc(F)cc2)CC1", "inhibition": "inconclusive: 20%"},
      {"smiles": "COc1cc(Cl)c(/C=C2\\SC(=Nc3cccc(C(=O)O)c3)N(C)C2=O)cc1OC", "inhibition": "inconclusive: 14%"},
      {"smiles": "N#Cc1sc2nc(-c3cccnc3)ccc2c1N", "inhibition": "inconclusive: 28%"},
      {"smiles": "Cc1ccc(C(c2ccc(C)o2)c2ccc(C)o2)o1", "inhibition": "inconclusive: 19%"},
      {"smiles": "O=C(C1CC1)N1CCc2cc(S(=O)(=O)N3CCC(N4CCCCC4)CC3)ccc21", "inhibition": "inactive"},
      {"smiles": "Cc1ccc2oc(=O)c(-c3nc4ccccc4s3)cc2c1", "inhibition": "active: 36%"},
      {"smiles": "COc1cccc(Cn2c(Oc3cccc(OC)c3)nc3c2c(=O)n(C)c(=O)n3C)c1", "inhibition": "inconclusive: 26%"},
      {"smiles": "Oc1ccc(N=Cc2cccc(I)c2O)cc1-c1nc2ccccc2o1", "inhibition": "active: 41%"},
      {"smiles": "Cc1nonc1CC(=O)N1CCCC(CCC(=O)N2CCN(Cc3ccccc3)CC2)C1", "note": "(stereo not given)", "inhibition": "inconclusive: 15%"},
      {"smiles": "OCc1ccc(CN2Cc3[nH]cnc3C[C@H]2c2nc(-c3ccccn3)no2)o1", "inhibition": "inconclusive: 18%"},
      {"smiles": "O=C(NN1C(=O)c2ccccc2C1=O)c1ccn[nH]1", "inhibition": "inconclusive: 22%"},
      {"smiles": "CCN1C(=O)N(CCN(C)C)C(=O)C12CCN(Cc1ccc(SC)cc1)CC2", "inhibition": "active: 51%"},
      {"smiles": "CC(C)NC(=O)N1Cc2[nH]cnc2C[C@H]1c1nc(-c2ccc(F)c(Cl)c2)no1", "inhibition": "inactive"}
    ]}
  ]
}
